The list is a part of this screen's results and no random one: it gathers tests that were run many times, whatever their T/C, doses with no T/C, and many T/C values between a quarter and a half above the control. Further doses and runs are listed elsewhere. T/C gives the treated animals as a percentage of the vehicle group. Some doses have a count of surviving animals in place of a T/C: the source files T/C as zero there, which appears to mark a toxic dose or a test without result, not a measured value. Some doses without a T/C left all or most animals alive at the check, yet need not have been tolerated: survival well below the control is almost never listed, so the zero probably covers shortened survival too. Counts of survivors are from the toxicity check (mostly the fifth day) where no day follows; animals may have died later. Schedule codes are those of the source, taken here to give the interval after Q, in days (D) or hours (H), and the number of doses after X. Some doses were run more than once; the results are listed from low to high. For survival time, the PubChem record calls one and a half times the control and up active, and a quarter to a half above the control has no call in these data; cut-offs in other NCI protocols can differ. Some T/C values carry the count of animals alive at the toxicity check (mostly the fifth day); without a count, all were alive then.
System: P388 leukemia ip, CD2F1 mice, survival T/C
Experiment: NCI In Vivo Anticancer Drug Screen. Data for tumor model P388 Leukemia (intraperitoneal) in CD2F1 (CDF1) mice
Conditions: T/C endpoint: median survival time, higher T/C = longer survival
[1] = dose: 240.0 mg/kg/injection, schedule: Q01DX005 (ip), vehicle: saline
[2] = dose: 100.0 mg/kg/injection, schedule: Q01DX009 (ip), vehicle: saline with Tween-80
[3] = dose: 200.0 mg/kg/injection, schedule: Q01DX009 (ip), vehicle: saline with Tween-80
[4] = dose: 12.5 mg/kg/injection, schedule: Q01DX005 (ip), vehicle: saline with Tween-80
[5] = dose: 50.0 mg/kg/injection, schedule: Q01DX005 (ip), vehicle: saline with Tween-80
[6] = dose: 100.0 mg/kg/injection, schedule: Q01DX005 (ip), vehicle: saline with Tween-80
[7] = dose: 200.0 mg/kg/injection, schedule: Q01DX005 (ip), vehicle: saline with Tween-80
[8] = dose: 60.0 mg/kg/injection, schedule: Q01DX005 (ip), vehicle: saline with Tween-80
[9] = dose: 120.0 mg/kg/injection, schedule: Q01DX005 (ip), vehicle: saline with Tween-80
[10] = dose: 240.0 mg/kg/injection, schedule: Q01DX005 (ip), vehicle: saline with Tween-80
[11] = dose: 50.0 mg/kg/injection, schedule: Q01DX009 (ip), vehicle: saline
[12] = dose: 200.0 mg/kg/injection, schedule: Q04DX003 (ip), vehicle: saline with Tween-80

Structure (SMILES): CNC1C(O)C(OC2C(N)CC(N)C(OC3OC(C(C)O)C(O)C(O)C3N)C2O)OCC1(C)O (stereo not given)
- survivor count (dose: 60.0 mg/kg/injection, schedule: Q01DX005 (ip), vehicle: saline): 6 of 6
- survivor count (dose: 120.0 mg/kg/injection, schedule: Q01DX005 (ip), vehicle: saline): 4 of 6
- survivor count [1]: 4 of 6

Structure (SMILES): Cc1c(C(N)=O)no[n+]1[O-]
- survivor count [1]: 0 of 6

Structure (SMILES): CCCCCCC1NC1Cc1ccc(Cl)c(Cl)c1 (stereo not given)
- survivor count [2]: 0 of 6
- survivor count [3]: 0 of 6
- survivor count (dose: 400.0 mg/kg/injection, schedule: Q01DX009 (ip), vehicle: saline with Tween-80): 0 of 6

Structure (SMILES): CC1CN=C(c2ccc(NC(=O)Nc3ccc(C4=NCC(C)N4)cc3)cc2)N1 (stereo not given)
- survivor count (dose: 6.25 mg/kg/injection, schedule: Q01DX005 (ip), vehicle: saline with Tween-80): 6 of 6
- survivor count [4]: 5 of 6
- survivor count (dose: 25.0 mg/kg/injection, schedule: Q01DX005 (ip), vehicle: saline with Tween-80): 0 of 6
- survivor count [5]: 0 of 6
- survivor count [6]: 0 of 6
- survivor count [7]: 0 of 6

Structure (SMILES): O=C(/C=C/c1c[nH]c2ccccc12)c1ccc([N+](=O)[O-])cc1
- survivor count [8]: 6 of 6
- survivor count [9]: 6 of 6
- survivor count [10]: 6 of 6

Structure (SMILES): CCC(C)C1NC(=O)C2CCCN2C(=O)C(CC2CO2)OC(=O)CCNC(=O)C(C)N(C)C(=O)C(C(C)C)N(C)C1=O (stereo not given)
- survivor count (dose: 6.25 mg/kg/injection, schedule: Q01DX005 (ip), vehicle: water): 0 of 6
- survivor count (dose: 12.5 mg/kg/injection, schedule: Q01DX005 (ip), vehicle: water): 0 of 6
- survivor count (dose: 25.0 mg/kg/injection, schedule: Q01DX005 (ip), vehicle: water): 0 of 6
- survivor count (dose: 50.0 mg/kg/injection, schedule: Q01DX005 (ip), vehicle: water): 0 of 6
- survivor count (dose: 100.0 mg/kg/injection, schedule: Q01DX005 (ip), vehicle: water): 0 of 6
- survivor count (dose: 200.0 mg/kg/injection, schedule: Q01DX005 (ip), vehicle: water): 0 of 6

Structure (SMILES): CCOC(=O)Cc1c[nH]c2ccc(N(CCCl)CCCl)cc12
- survivor count (dose: 19.0 mg/kg/injection, schedule: Q04DX003 (ip), vehicle: Klucel (hydroxypropylcellulose) (HPC)): 5 of 6

Structure (SMILES): CNC1=C(C(=O)c2ccccc2)CCC1
- T/C [11]: 129 % of control
- survivor count [11]: 5 of 6

Structure (SMILES): CN(C)CCCn1ncc(Sc2cc([N+](=O)[O-])ccc2N)c(Cl)c1=O
- survivor count [9]: 1 of 6
- survivor count [10]: 0 of 6

Structure (SMILES): CCCCCCC1N=C(N)N=C(N)N1c1cccc(Cl)c1 (stereo not given)
- survivor count (dose: 50.0 mg/kg/injection, schedule: Q01DX005 (ip), vehicle: Klucel (hydroxypropylcellulose) (HPC)): 0 of 5 and 3 of 5
- survivor count (dose: 100.0 mg/kg/injection, schedule: Q01DX005 (ip), vehicle: Klucel (hydroxypropylcellulose) (HPC)): 0 of 5
- survivor count (dose: 200.0 mg/kg/injection, schedule: Q01DX005 (ip), vehicle: Klucel (hydroxypropylcellulose) (HPC)): 0 of 5

Structure (SMILES): O=C1C=CC(=O)c2nc3ccccc3nc21
- survivor count (dose: 12.5 mg/kg/injection, schedule: Q01DX009 (ip), vehicle: distilled water + Tween-80): 2 of 6
- survivor count (dose: 25.0 mg/kg/injection, schedule: Q01DX009 (ip), vehicle: distilled water + Tween-80): 2 of 6
- survivor count (dose: 50.0 mg/kg/injection, schedule: Q01DX009 (ip), vehicle: distilled water + Tween-80): 1 of 6
- survivor count (dose: 100.0 mg/kg/injection, schedule: Q01DX009 (ip), vehicle: distilled water + Tween-80): 0 of 6

Structure (SMILES): CCCCc1c(OC(=O)N(C)C)c(C#N)c2n(C)c3ccccc3n2c1=O
- survivor count [9]: 6 of 6

Structure (SMILES): O=C1NNC(c2ccccc2)C1(Cl)Cl (stereo not given)
- survivor count (dose: 25.0 mg/kg/injection, schedule: Q01DX009 (ip), vehicle: saline with Tween-80): 2 of 6
- survivor count [11]: 5 of 6
- survivor count (dose: 100.0 mg/kg/injection, schedule: Q01DX009 (ip), vehicle: saline): 2 of 6
- survivor count (dose: 200.0 mg/kg/injection, schedule: Q01DX009 (ip), vehicle: saline): 0 of 6

Structure (SMILES): CCCCCCCCCCCCCCS[As](C)C
- survivor count (dose: 200.0 mg/kg/injection, schedule: Q04DX002 (ip), vehicle: Klucel (hydroxypropylcellulose) (HPC)): 5 of 5

Structure (SMILES): Cc1ccc2cccc(CC(=O)NN)c2c1
- survivor count [10]: 3 of 6

Structure (SMILES): O=c1ccs[nH]1
- survivor count (dose: 25.0 mg/kg/injection, schedule: Q01DX009 (ip), vehicle: Klucel (hydroxypropylcellulose) (HPC)): 2 of 6
- survivor count (dose: 50.0 mg/kg/injection, schedule: Q01DX009 (ip), vehicle: Klucel (hydroxypropylcellulose) (HPC)): 0 of 6

Structure (SMILES): CSc1c(N(C)C)c(=O)c1=S
- survivor count [8]: 3 of 6
- survivor count [9]: 3 of 6
- survivor count [10]: 0 of 6

Structure (SMILES): CCOC(=O)/C(=C(/[S-])SC)[n+]1ccc(C)cc1
- survivor count (dose: 400.0 mg/kg/injection, schedule: Q04DX002 (ip), vehicle: saline with Tween-80): 2 of 6

Structure (SMILES): CC[PH+](CC)CC[S-].CC[PH+](CC)CC[S-].[Au+].[Au+]
- T/C (dose: 10.0 mg/kg/injection, schedule: Q01DX009 (ip), vehicle: Klucel (hydroxypropylcellulose) (HPC)): 130 and 134 % of control
- T/C (dose: 20.0 mg/kg/injection, schedule: Q01DX009 (ip), vehicle: Klucel (hydroxypropylcellulose) (HPC)): 135 % of control

Structure (SMILES): NC(=O)Oc1cccc(OC(N)=O)c1
- T/C (dose: 100.0 mg/kg/injection, schedule: Q04DX003 (ip), vehicle: other): 135 % of control
- survivor count (dose: 400.0 mg/kg/injection, schedule: Q01DX009 (ip), vehicle: other): 5 of 6
- T/C (dose: 400.0 mg/kg/injection, schedule: Q04DX003 (ip), vehicle: other): 135 % of control

Structure (SMILES): CCCCCCCCCCCCCS
- T/C (dose: 66.0 mg/kg/injection, schedule: Q01DX009 (ip), vehicle: saline with Tween-80): 127 % of control
- T/C [2]: 131 and 131 % of control [5 of 6 alive]
- T/C (dose: 100.0 mg/kg/injection, schedule: Q04DX003 (ip), vehicle: saline with Tween-80): 131 % of control
- survivor count (dose: 150.0 mg/kg/injection, schedule: Q01DX009 (ip), vehicle: saline with Tween-80): 3 of 6
- survivor count [3]: 1 of 6
- T/C [12]: 131 % of control
- survivor count [12]: 2 of 6
- survivor count (dose: 300.0 mg/kg/injection, schedule: Q04DX003 (ip), vehicle: saline with Tween-80): 5 of 6
- survivor count (dose: 400.0 mg/kg/injection, schedule: Q04DX003 (ip), vehicle: saline with Tween-80): 5 of 6

Structure (SMILES): COC(=O)[C@H](C)C1OC(O)C=CC1=O (stereo not given in full)
- survivor count (dose: 100.0 mg/kg/injection, schedule: Q01DX001 (ip), vehicle: saline + Tween-80 + alcohol): 1 of 6
- survivor count (dose: 200.0 mg/kg/injection, schedule: Q01DX001 (ip), vehicle: saline + Tween-80 + alcohol): 0 of 6
- survivor count (dose: 400.0 mg/kg/injection, schedule: Q01DX001 (ip), vehicle: saline + Tween-80 + alcohol): 0 of 6

Structure (SMILES): CCc1cccc(C)c1NC(=O)C(=O)C(C#N)c1ccc(CC#N)cc1 (stereo not given)
- survivor count [10]: 3 of 6

Structure (SMILES): CC(C(O)c1ccc2cc(Br)c3ccccc3c2c1)N(C)C (stereo not given)
- survivor count [7]: 1 of 6

Structure (SMILES): C[N+](C)(C)C.[CH-]1CCCCC1.[CH-]1CCCCC1.[CH-]1CCCCC1.[Cl-].[Cl-].[Sn+4]
- survivor count [4]: 1 of 6
- survivor count [5]: 0 of 6
- survivor count [6]: 0 of 6
- survivor count [7]: 0 of 6

Source: PubChem BioAssay AID330 (DTP/NCI, 2004)
